Experimental data from article doi:10.1101/2020.08.04.235721.
For at least one entry, the source does not settle the construct or the ends of the probe. For some of these results: Results from cells or extracts need not show a direct contact. The direction of at least one scale is not stated here. Protein sequences can lack the tags named with them.

Legend:
[1] = target: T1, IRP1 (HeLa extract) (UniProt P21399); test: EMSA; conditions: relative to no DTT, protein in an extract
T1 sequence (looked up, limits assumed): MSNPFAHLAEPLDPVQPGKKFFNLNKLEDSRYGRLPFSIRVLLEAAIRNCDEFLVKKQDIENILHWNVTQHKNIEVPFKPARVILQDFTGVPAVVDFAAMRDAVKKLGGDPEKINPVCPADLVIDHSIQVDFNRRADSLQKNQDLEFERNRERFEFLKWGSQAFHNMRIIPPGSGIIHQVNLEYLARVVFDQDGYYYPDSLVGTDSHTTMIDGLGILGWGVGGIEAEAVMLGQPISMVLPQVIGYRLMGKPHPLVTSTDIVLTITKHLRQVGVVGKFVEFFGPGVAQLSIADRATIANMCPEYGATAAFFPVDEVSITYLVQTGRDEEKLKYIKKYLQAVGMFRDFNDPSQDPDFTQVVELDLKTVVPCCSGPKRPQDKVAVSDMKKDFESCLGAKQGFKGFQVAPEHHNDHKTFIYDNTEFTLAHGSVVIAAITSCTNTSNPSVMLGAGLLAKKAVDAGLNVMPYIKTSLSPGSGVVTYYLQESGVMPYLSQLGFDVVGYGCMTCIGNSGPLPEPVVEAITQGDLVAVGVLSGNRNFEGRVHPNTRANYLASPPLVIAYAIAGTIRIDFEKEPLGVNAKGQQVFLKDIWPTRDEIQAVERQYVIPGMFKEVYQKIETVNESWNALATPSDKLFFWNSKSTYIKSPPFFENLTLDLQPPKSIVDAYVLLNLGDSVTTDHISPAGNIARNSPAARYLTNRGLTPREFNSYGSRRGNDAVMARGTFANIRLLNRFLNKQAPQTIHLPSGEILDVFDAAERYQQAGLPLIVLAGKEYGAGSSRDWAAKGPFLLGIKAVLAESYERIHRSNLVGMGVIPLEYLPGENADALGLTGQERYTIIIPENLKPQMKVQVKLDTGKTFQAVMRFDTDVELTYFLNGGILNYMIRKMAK

[2] = target: T2, IRP1 (recombinant) (human) (UniProt P21399); test: EMSA
T2 sequence (looked up, limits assumed): T1 sequence (looked up, limits assumed)

Sequence “GGCUCCUGAGGCGGCCGUACAAUCCUCGGCAGUGUCCUGAGACUGUAUGGUCAGCUCAGCCCAUG [Hif2α-IRE probe]” has a binding signal ([1]; siCtr HeLa lysate + 300 mM DTT) of 115%, a binding signal ([1]; siTrx1 HeLa lysate + 300 mM DTT) of 194% and a binding signal ([2]; holo-Trx1 (reconstituted FeS-Trx1), relative to apo-Trx1) of 44%. It also gave a binding signal ([2]; no reductant added (reference for 359% and 251%)) of 100%.
